# Primary screen of a compound library

A: 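Whole-parasite assay of Trypanosoma brucei over 72 hours; the read-out is not stated. Compounds at 30 µM. Higher reads as stronger inhibition (inferred: compounds with an IC50 in retests scored well above the rest). Values scatter widely below zero; nearly all retest evidence comes from the higher of the two concentrations used. Size under these conditions: about 64,000 compounds, about 940 of them at 50% or above in at least one test.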
B: 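Assay of Toxoplasma gondii numbers, read through their beta-galactosidase reporter with a colour substrate. Tested at 10 µM. Higher reads as fewer parasites (inferred from which compounds were picked for retests). Size under these conditions: about 67,000 compounds, about 260 of them at 50% or above in at least one test.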
C: 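Cell assay of Leishmania donovani living inside macrophages; the read-out is not stated. Concentration: 30 µM. Higher reads as stronger inhibition (inferred: compounds with an IC50 in retests scored well above the rest). Size under these conditions: about 69,000 compounds, about 1,000 of them at 50% or above in at least one test.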

Results are given as percent effect. The record does not define 0% and 100%; most values in the screen are far below 50% and negative numbers occur (in some assays of this library far below -100). The compounds are a random part of those screened. Two or more numbers in one place are separate tests of the same structure; such repeats can differ widely. A dash means the value is not listed here; it may have been measured.

| # | Compound | A | B | C |
|---|---|---|---|---|
| 1 | `CCc1nnc2n1CCN(CC(=O)Nc1cc(C)nn1C)C2` | 5.975 | -32.04 | 9.421 |
| 2 | `c1ccc(Cn2cccn2)c(CNCC2CNc3ccnn3C2)c1` (stereo not given) | 24.57 | 3.07 | 46.43 |
| 3 | `Cc1cc(C(=O)NC2CCCc3c2cnn3-c2cccc(C)c2C)[nH]n1` (stereo not given) | -0.8243 | -3.122 | 47.35 & 21.14 |
| 4 | `Cc1nn(C)c(C)c1C1COCCN1C(=O)CCc1ccccc1` (stereo not given) | - | 13.65 | 20.28 |
| 5 | `CCCc1n[nH]c(C2CN(C(=O)CCCn3ccnc3)CCO2)n1` (stereo not given) | - | 19.9 | 48.09 |
| 6 | `Cn1cc(CN2CCCC(CCc3ccc(F)cc3)C2)cn1` (stereo not given) | -22.6 | 2.155 | 7.255 |
| 7 | `CN(C(=O)Cc1ccccc1F)C1CCN(c2ccccn2)CC1` | -4.539 | -3.271 | -12.16 |
| 8 | `CCN1CCN(CC(O)c2ccc(F)cc2)CC1` (stereo not given) | -22.24 | 5.916 | 10.37 |
| 9 | `CC(C)N1CC2(CCC1=O)CCN(c1ccnc3ccccc13)CC2` | -25.83 | -3.193 | 16.36 |
| 10 | `CC(=O)Nc1ccc(/C=C/c2ncc(C(=O)O)s2)cc1` | -3.208 | 1.654 | -197.6 |
| 11 | `O=C(NCC(O)c1ccc(F)cc1F)c1ccccc1` (stereo not given) | -20.72 | -8.021 | 22.77 |
| 12 | `CN(C)S(=O)(=O)N1CCCCCC1c1cc(-c2ccc(F)cc2)no1` (stereo not given) | 25.24 | 25.09 | 16.42 |
| 13 | `CCc1nnc2n1CCN(Cc1csc(-c3ccccc3F)n1)C2` | -24.65 | 0.4153 | 24.34 |
| 14 | `c1cnc(CC2CCN(c3cnccn3)CC2)cn1` | - | - | 5.206 |
| 15 | `Cl.O=C1CC2(CCNCC2)C(=O)N1Cc1ccc(F)cc1` | 3.153 | 11.5 | 26.47 |
| 16 | `C=C(C)CN1C(=O)CC(Cc2ccc(F)cc2)C1=O` (stereo not given) | -31.26 | -18.8 | 20.97 |
| 17 | `Cc1noc(COCC(=O)Nc2ccc(Br)c(C)n2)n1` | -0.715 | -4.011 | 17.74 |
| 18 | `COCc1nc(C(=O)NS(=O)(=O)c2ccc(OC)c(C)c2)cs1` | 0.6207 | -2.065 | 15.28 |
| 19 | `COCCN1CCc2ncnc(-c3ccccc3)c2CC1.O=C(O)C(F)(F)F` | -87.22 | 4.446 | 32.74 |
| 20 | `CN(C)CCN1CC(C(=O)NCc2cn3cccnc3n2)CC1=O` (stereo not given) | - | -41.9 | 26.75 |
| 21 | `CCCC(NC(=O)NCc1cccc(N(C)C)n1)c1ccccn1` (stereo not given) | -30.57 | -16.17 | -11.57 |
| 22 | `O=C(O)C(F)(F)F.O=C(O)C(F)(F)F.[H][C@@]12CCN(C)C[C@]1(C(=O)NCCc1ccccn1)CCO2` | -17.73 | -22.37 | -159.9 |
| 23 | `O=C(NC1CCN(c2ccc(-c3ccccc3F)nn2)C1)c1cc[nH]n1` (stereo not given) | 19.66 | 21.75 | 37.94 & 24.44 |
| 24 | `Cc1nn(C)c(C)c1NC(=O)c1cccc(CN2CC[C@H](O)C2)c1` | -26.44 | 9.299 | 19.1 |
| 25 | `COc1ccc(Cc2cccc(C3CCN(C)CC3)n2)cc1` | 11.62 | -0.3203 | 41.82 |
| 26 | `CN(C(=O)Nc1cccnc1)C1CCN(c2ccc(Cl)cc2)CC1` | -5.678 | -3.448 | 5.893 |
| 27 | `CC(C)(C)c1cnc(CN2CCCCC2Cn2cccn2)o1` (stereo not given) | -24.92 | 0.797 | -9.358 |
| 28 | `c1nc(N2CCOC(Cn3cncn3)C2)c2cc[nH]c2n1` (stereo not given) | -7.773 | -0.3012 | 24.06 |
| 29 | `COCCNc1cc(-c2ccccc2C(=O)O)c2cc[nH]c2n1` | -14.14 | -5.917 | 30.31 |
| 30 | `Cc1nc(C)n(CC2CCCN(Cc3ncc(C(C)(C)C)o3)C2)n1` (stereo not given) | -19.67 | -0.3774 | -20.4 |
| 31 | `O=C(N[C@@H]1CCC[C@@H](N2CCOCC2)[C@@H]1O)c1cnn2cccnc12` | -33.01 | -9.474 | -2.465 & 1.596 |
| 32 | `CN1CC(=O)N(c2cccc(F)c2)CC12CCN(Cc1nccs1)C2.O=C(O)C(F)(F)F.O=C(O)C(F)(F)F` (stereo not given) | -63 | 1.354 | -12.36 & -1.815 |
| 33 | `CS(=O)(=O)CCN(CC1CCCO1)C1CCCC1` (stereo not given) | -48.73 | 7.639 | -2.509 |
| 34 | `Cc1nc(-c2ccccc2)n(CC(=O)NC(C2CC2)C2CC2)n1` | -33.8 | -5.619 | 16.16 |
| 35 | `Cc1nc(C2CCCN2CCCc2nc3ccccc3o2)no1` (stereo not given) | -38.56 | 23.85 | 20.07 |
| 36 | `N#Cc1ccc(CCC(=O)N2CCCC(n3cncn3)C2)cc1` (stereo not given) | 0.7774 | 20.52 | 16.1 |

3 of the entries, repeated:

CC(=O)Nc1ccc(/C=C/c2ncc(C(=O)O)s2)cc1 read A: -3.208%; B: 1.654%; C: -197.6%.
c1cnc(CC2CCN(c3cnccn3)CC2)cn1 read C: 5.206%.
N#Cc1ccc(CCC(=O)N2CCCC(n3cncn3)C2)cc1 (stereo not given) read A: 0.7774%; B: 20.52%; C: 16.1%.

Source: ChEMBL document CHEMBL3988442, “University of Dundee, Small-Polar-MMV Screening Library” (2021).